# According to PubChem BioAssay AID901 (National Center for Advancing Translational Sciences (NCATS), 2007):
# Some of the results follow. These are further read-outs of the screen, such as a control signal, another cell line or another target. No call is given for them. The list favours compounds with an active or inconclusive main result. Potencies come from curve fits of mixed quality, noted in brackets.
# Experiment: qHTS Assay for Identifying the Cell-Membrane Permeable IMPase Inhibitors
# Settings: CHO-M1 cells, IP1 accumulation, HTRF TR-FRET ratio; measured here: donor channel 620 nm AC50
# From the text: NCGC IMPase Assay Overview
# Lithium has been widely used for the treatment of bipolar disorder. But lithium has a narrow therapeutic index and it can cause side effects such as thirst, weight gain, tremor, polyuria and memory problems. Although the mechanism for lithium action in treatment of bipolar disorder is still not fully understood, inhibition of inositol monophosphatase (IMPase) and the subsequent depletion of the inositol pool in living cells have been implicated as the primary therapeutic benefit of lithium therapy. Therefore, a selective IMPase inhibitor with reduced side effects might be a good drug candidate to replace lithium for the treatment of bipolar disorder. Several IMPase inhibitors have been discovered previously. However, they are not suitable for therapeutic use because of their poor cell membrane penetrability or oral bioavailability; the development of new cell-permeable IMPase inhibitors is needed.
# IMPase catalyzes the hydrolysis of inositol-1-phosphate (IP1) to release free inositol. Binding of an agonist to a Gq coupled GPCR results in the activation of PLC, which hydrolyzes the PIP2 to form inositol-1,4,5-trisphosphate (IP3) and diacyl glycerol (DAG). While DAG activates protein kinase C (PKC), IP3 triggers the elevation of intracellular free Ca2+. The IP3 is very rapidly inactivated by hydrolysis to IP2, IP1 and then inositol by a series of enzymes including IMPase. Free inositols are used for synthesis of PI and thus start another inositol cycle.
# To identify new cell-permeable IMPase inhibitors, we developed a cell-based IMPase assay in which the cytosolic IP1 is measured by a time-resolved fluorescence resonance energy transfer (TR-FRET) assay. In this assay, an IP1 specific antibody is used to detect the labeled IP1 tracer. When the cell lysate contains the elevated IP1 due to the inhibition of IMPase, the TR-FRET between the labeled antibody and IP1 tracer is disrupted resulting in a reduction in the total signal. Since the TR-FRET is used, this cell-based assay is a homogenous assay without cell wash and medium change that is suitable for assay miniaturization and HTS.
# NCGC IMPase Assay Protocol Summary
# A Chinese hamster ovary (CHO) cell line stably expressing the M1 receptor (CHO-M1) was obtained from ATCC and maintained in F-12 Kaighn's media (Invitrogen, Carlsbad, CA, 21127) supplemented with 10 % FBS, 100 units/ml penicillin, 100 ug/ml streptomycin and 250 ug/ml geneticin at 37C, 5% CO2 in a humidified atmosphere. Before the assay, aliquots of cells were frozen and stored at -135C. The assay was performed in 1536-well format. Data are reported for both the ratio of the two emission wavelengths, and also for the component 'donor' channel, Em2=620. […] AC50 values were determined from concentration-response data modeled with the standard Hill equation.
# IMPase 1536-well assay protocol:
# (1) Plate 4 ul/well (2000 cells) of cell suspension from frozen CHO-M1 Cells in white, tissue culture treated 1536-well plates that are cultured at 37C, 5 % CO2 for 16 to 30 hours.
# (2) Add 23 nl/well of compound in DMSO solution. The final titration for each compound was between 0.6 nM and 46 uM.
# (3) Add 1 ul of carbachol (50 uM in stimulation buffer containing10mM HEPES, 1mM CaCl2, 0.5 mM MgCl2, 4.2 mM KCl, 146 mM NaCl, 5.5 mM glucose, 50mM LiCl, pH 7.4.
# (4) Incubation at 37C, 5 % CO2 for 30 min.
# (5) Add 1 ul/well of d2-conjugated IP1 (d2-IP1) and 1 ul/well of Eu+ cryptate conjugated anti-IP1 antibody (Eu+-Ab) prepared in the cell lysis buffer, both from the IP-One kit (Cisbio, MA).
# (6) Incubate at room temperature for 10 minutes.
# (7) Detect the assay plate (Ex = 320, Em1 =665 and Em2 620) in a ViewLux plate reader.
# inositol monophosphatase, IMPase, IMPase inhibitor, lithium, bipolar disorder, IP-One, HTRF, qHTS, NIH roadmap, NCGC
# Note: In the gene ID and protein GI references for this assay, rat IMPase is referenced instead of hampster as hamster accession numbers were not available.
row,Structure (SMILES),AC50
1,Cc1cc(C(F)F)n2ncc(C(=O)NCc3ccccc3)c2n1,"0.00501 µM [falling, full curve, poor fit]"
2,O=C(CCC1N=C2c3ccccc3N=C(SCC(=O)Nc3ccccc3F)N2C1=O)NCc1cccs1 (stereo not drawn),"31.6 µM [rising, single point]"
3,CCOC(=O)n1c(=O)n(Cc2ccccc2)c2ccccc21,"0.631 µM [rising, full curve, poor fit]"
4,CCCN(C(=O)Cc1c(C(=O)O)[nH]c2ccc(Cl)cc12)c1ccc(OCC)cc1,"0.0282 µM [falling, full curve, poor fit]"
5,CCCCCn1c(CCNC(=O)CCC)nc2ccccc21,"5.01 µM [rising, partial curve]"
6,COc1ccc(OC)c(C2C(C(=O)c3cc4ccccc4o3)=C(O)C(=O)N2c2cc(C)on2)c1 (stereo not drawn),"12.6 µM [rising, partial curve]"
7,O=C(NC1=NCCS1)C1COc2ccccc2O1 (stereo not drawn),"31.6 µM [falling, single point]"
8,N#Cc1c(C(F)(F)F)cc(-c2ccc(Cl)c(Cl)c2)nc1SCCN1CCOCC1,"0.0316 µM [rising, full curve, poor fit]"
9,Cc1nc2ccc(NC(=S)N3CCN(c4ccccn4)CC3)cc2nc1C,"31.6 µM [rising, single point]"
10,Cc1ccc(CN(C)C(=O)C2CCCN2C(=O)c2cccs2)o1 (stereo not drawn),"0.316 µM [falling, full curve]"
11,C[N+](C)(C)CCCC(=O)c1ccc2c(c1)OCO2,"12.6 µM [falling, partial curve]"
12,Cc1ccc2cc(C(c3nnnn3C(C)(C)C)N3CCCCCC3)c(=O)[nH]c2c1 (stereo not drawn),"0.794 µM [rising, single point]"
13,O=c1cc(CSc2nnc(-c3ccco3)o2)c2ccccc2[nH]1,"31.6 µM [falling, single point]"
14,CC(C)n1c(SCc2cc(=O)[nH]c3ccccc23)nc2c1c(=O)n(C)c(=O)n2C,"3.16 µM [falling, partial curve, poor fit]"
15,O=C(Cc1ccccc1)Nc1nc(=O)c2ccccc2s1,"31.6 µM [rising, single point]"
16,O=C(Nc1nc(-c2nc3ccccc3s2)cs1)C1COc2ccccc2O1 (stereo not drawn),"22.4 µM [rising, single point]"
17,CCOC(=O)Cc1cnc(NC(=O)Cn2nnc(-c3ccc(OCC)cc3)n2)s1,"20 µM [falling, partial curve, poor fit]"

row,Structure (SMILES),AC50
1,COC(=O)c1ccc(CC(=O)c2ccc(O)cc2O)o1,"0.00501 µM [falling, full curve, poor fit]"
2,CCOC(=O)c1nnc(-c2ccccc2)nc1Oc1ccccc1Cl,"20 µM [falling, single point]"
3,CCOC(=O)c1nc(Nc2ccc(C(=O)OC)cc2)c2ccccc2n1,"25.1 µM [rising, single point]"
4,Nc1ccc2nc(-c3ccc(O)cc3)sc2c1,"11.2 µM [rising, single point]"
5,CCCCNc1cc(=O)n(C)c(=O)n1C,"31.6 µM [falling, single point]"
6,CCc1cccc(C)c1NC(=O)C(c1ccc(O)cc1)N1CCC1=O (stereo not drawn),"1.58 µM [rising, partial curve]"
7,Cc1nnc(SCC(=O)N2CCC(C(N)=O)CC2)s1,"0.316 µM [rising, partial curve]"
8,O=C(CN1CCN(c2ccccn2)CC1)Nc1cc(C(F)(F)F)ccc1Cl,"0.0251 µM [rising, full curve, poor fit]"
9,CN(C)Cc1c(O)c(Cl)cc2c3c(c(=O)oc12)CCCC3,"2.51 µM [rising, partial curve]"
10,Cc1ccc(NC(=O)c2cccc(N3C(=O)C4C5CCC(C5)C4C3=O)c2)c(C)c1 (stereo not drawn),"35.5 µM [rising, single point]"
11,Cc1cc(Br)c2nc3c(c(C(=O)O)c2c1)CCCCC3,"12.6 µM [rising, partial curve]"
12,COc1ccc(-c2cc(C(F)(F)F)nc(SCC(=O)N3CCCCC3C)n2)cc1OC (stereo not drawn),"5.62 µM [falling, single point]"
13,CCOC(=O)c1c(N)sc2c(OC)c(Br)ccc12,"0.00794 µM [falling, full curve, poor fit]"
14,CCN(CC)Cc1c(NC(=O)c2ccc(OC)cc2)sc2c1CCCC2,"0.158 µM [falling, full curve, poor fit]"
15,COc1ccccc1C/C(N)=N/OC(=O)COc1ccc2ccccc2c1,"3.98 µM [rising, full curve]"
16,Cc1ccc(-c2cc(C#N)c(=O)n(Cc3c(Cl)cccc3Cl)c2)cc1,"0.02 µM [rising, full curve, poor fit]"

# Taken from above:
# AC50, Cc1ccc(NC(=O)c2cccc(N3C(=O)C4C5CCC(C5)C4C3=O)c2)c(C)c1 (stereo not drawn) reads 35.5 µM [rising, single point]
# AC50, CCCCCn1c(CCNC(=O)CCC)nc2ccccc21 reads 5.01 µM [rising, partial curve]
